The whole screen tested about 300,000 compounds, of which about 3,700 (1.2%) were called active. Inconclusive means that the source gave no clear call. Such entries were picked first, then a sample of the others. Calls follow the shape of the full dose curve; tested in HEK293 cells. Where the call is inconclusive, the potency comes from a doubtful curve fit.
Assay: qHTS for Inhibitors of binding or entry into cells for Lassa Virus; also: nearly all actives have a fitted effect of over 50% in size
Conditions: Lassa virus pseudotype entry inhibition, cell reporter; activity change, negative = inhibition: at 37.9 µM (top of the series) unless noted
% is scaled to controls: 0 for no effect and ±100 for the full control effect; potency is read from the fitted curve at half-maximal effect.

**Q.** With `CCOc1ccc(-c2c(C)nn3c(C)c(C(=O)NCCc4ccc(Cl)cc4)cnc23)cc1OCC` as the compound, how does the Potency read?
**A.** The Potency was inconclusive: 12.6 µM [inhibitor, partial curve, poor fit].

**Q.** With `CCCCn1nnnc1SCC(=O)NC1CCCCC1` as the compound, how does the “activity change, negative = inhibition” value read?
**A.** The value was inactive: -16.1% [at 46.1 µM].

**Q.** With `CNC(=S)N(Cc1ccc(Cl)cc1)Cc1cccs1` as the compound, how does the Potency read?
**A.** Its Potency is inconclusive: 35.5 µM [inhibitor, single point].

**Q.** Which “activity change, negative = inhibition” value does the source give for `COc1cccc(-c2csc(N3CCN(C(=S)Nc4ccccc4OC)CC3)n2)c1` here?
**A.** Its value is inactive: 8.74%.

**Q.** With `O=C(CN1CCC(Cc2ccccc2)CC1)NCCc1ccc(F)cc1` as the compound, how does the Potency read?
**A.** The Potency was inconclusive: 31.6 µM [inhibitor, partial curve, poor fit].

**Q.** Which “activity change, negative = inhibition” value does the source give for `Cc1ccccc1OCC(=O)Nc1cccc(C(=O)OCc2cc(=O)n3c(C)csc3n2)c1` here?
**A.** Its value is inactive: 13.8% [at 46.1 µM].

**Q.** For `CC1CC(C)CN(CCOc2ccccc2-c2ccccc2)C1` (stereo not given), which Potency is on record?
**A.** The Potency was inconclusive: 11.6 µM [inhibitor, partial curve].

**Q.** For `COc1ccc(S(=O)(=O)N(C)C)cc1NCC(=O)Nc1cccc(C#N)c1`, which Potency is on record?
**A.** The Potency was inconclusive: 5.62 µM [inhibitor, single point].

**Q.** Which Potency does the source give for `O=C(Nc1ccc2c(c1)N(C1CCCC1)C(=O)c1ccccc1S2)c1ccccc1F` here?
**A.** Its Potency is inconclusive: 2.82 µM [inhibitor, full curve, poor fit].

**Q.** With `Cc1cc(C)cc(NS(=O)(=O)c2cc(C(=O)NCc3ccccn3)ccc2Cl)c1` as the compound, how does the “activity change, negative = inhibition” value read?
**A.** Its value is inactive: 11.3%.

**Q.** Which “activity change, negative = inhibition” value does the source give for `Cc1nc(N2CCN(c3ccccc3)CC2)[nH]c(=O)c1C` here?
**A.** Its value is inactive: 3.68%.

**Q.** With `C=CC(=O)N1C/C(=C/c2ccccc2)C(=O)/C(=C\c2ccccc2)C1` as the compound, how does the Potency read?
**A.** Its Potency is inconclusive: 1.78 µM [inhibitor, full curve, poor fit].

**Q.** For `Cc1cccc(NC(=O)CSc2nsc(SCC(=O)Nc3cccc(C)c3)c2C#N)c1`, which “activity change, negative = inhibition” value is on record?
**A.** The value was inactive: 1.72%.

**Q.** For `O=C(c1ccc(-c2ccccc2)cc1)C1CCCN(C(=O)c2ccncc2)C1` (stereo not given), which Potency is on record?
**A.** The Potency was inconclusive: 35.5 µM [inhibitor, single point].

**Q.** Which “activity change, negative = inhibition” value does the source give for `CCC(NC(=O)c1cc(COc2c(F)cccc2F)on1)c1ccncc1` (stereo not given) here?
**A.** Its value is inactive: 1.53%.

**Q.** With `COc1nccc(Nc2ccccc2)c1C#N` as the compound, how does the Potency read?
**A.** The Potency was inconclusive: 14.1 µM [activator, single point].

**Q.** For `Cc1ccc(-n2c(C)cc(C)c(C#N)c2=O)cc1`, which Potency is on record?
**A.** The Potency was inconclusive: 35.5 µM [activator, partial curve, poor fit].

**Q.** Which “activity change, negative = inhibition” value does the source give for `CCOCCCNC(=O)CCNS(=O)(=O)c1ccc(C)cc1` here?
**A.** The value was inactive: 3.9%.

**Q.** For `Cc1ccc(OCc2cc(C(=O)NCC(C)(C)N3CCOCC3)no2)cc1C`, which Potency is on record?
**A.** The Potency was inconclusive: 35.5 µM [inhibitor, single point].

**Q.** With `Cc1ccc(NC(=O)CCOc2ccccc2)cc1S(=O)(=O)Nc1ccccc1Cl` as the compound, how does the Potency read?
**A.** The Potency was inconclusive: 2 µM [inhibitor, full curve, poor fit].

**Q.** Which Potency does the source give for `COc1ccc(/C=N/NC(=O)c2nc(-c3ccccc3)cc(-c3ccccc3)n2)cc1O` here?
**A.** Its Potency is inconclusive: 18.4 µM [inhibitor, partial curve, poor fit].

**Q.** Which “activity change, negative = inhibition” value does the source give for `O=C(c1ccc(COc2ccc(Cl)cc2Cl)o1)N1CCCC1` here?
**A.** Its value is inactive: 0.113%.

**Q.** For `CCC(C)(C)c1ccc(Oc2ccc(NC(=O)COC(=O)C3=COCCO3)cc2)cc1`, which Potency is on record?
**A.** Its Potency is inconclusive: 18.3 µM [inhibitor, partial curve].

**Q.** With `O=S(=O)(c1cccc(C(F)(F)F)c1)N1CCN(C(=S)NCc2ccco2)CC1` as the compound, how does the Potency read?
**A.** Its Potency is inconclusive: 35.5 µM [inhibitor, single point].

**Q.** With `CCOc1ccc(NC(=O)c2cc(OC)nc3ccccc23)cc1` as the compound, how does the Potency read?
**A.** The Potency was inconclusive: 3.98 µM [inhibitor, partial curve, poor fit].

**Q.** Which Potency does the source give for `COc1ccc(CNC(=O)CCSc2nc(-c3ccc4c(c3)OCO4)cc(C(F)(F)F)n2)cc1` here?
**A.** The Potency was inconclusive: 29.1 µM [inhibitor, single point].

**Q.** With `COC(=O)c1ccc(COC(=O)c2ccc(CS(=O)(=O)c3ccc(C)cc3)cc2)cc1` as the compound, how does the “activity change, negative = inhibition” value read?
**A.** Its value is inactive: -3.71%.

**Q.** With `O=C(Nc1ccc(S(=O)(=O)Nc2ncccn2)cc1)c1cc(=O)c2ccccc2o1` as the compound, how does the Potency read?
**A.** The Potency was inconclusive: 0.794 µM [activator, full curve, poor fit].

**Q.** Which Potency does the source give for `Cc1cccc(OCc2nnc(SCC(=O)N3c4ccccc4CCc4ccccc43)o2)c1` here?
**A.** Its Potency is inconclusive: 17.8 µM [inhibitor, partial curve, poor fit].

**Q.** Which “activity change, negative = inhibition” value does the source give for `CC(=O)N1CCc2cc(S(=O)(=O)NC(C(=O)Nc3nc(C)cs3)C(C)C)ccc21` (stereo not given) here?
**A.** Its value is inactive: -0.194%.

**Q.** With `COc1ccc(-c2coc3cc4oc(=O)cc(C)c4cc23)cc1F` as the compound, how does the Potency read?
**A.** The Potency was inconclusive: 20.6 µM [inhibitor, single point].

**Q.** Which “activity change, negative = inhibition” value does the source give for `CCSc1ccccc1C(=O)Nc1ccc(S(=O)(=O)NC(C)=O)cc1` here?
**A.** The value was inactive: -15% [at 46.1 µM].

**Q.** With `CN1CCN(S(=O)(=O)c2cccs2)CC1` as the compound, how does the “activity change, negative = inhibition” value read?
**A.** Its value is inactive: 2.28%.

**Q.** Which “activity change, negative = inhibition” value does the source give for `COc1cc2cc(C(=O)Nc3ccccc3)c(N)nc2cc1OC` here?
**A.** The value was inactive: -0.636%.

**Q.** With `Cc1ccc(S(=O)(=O)N2CCCc3cc(NS(=O)(=O)c4cc(C)ccc4C)ccc32)cc1` as the compound, how does the Potency read?
**A.** Its Potency is inconclusive: 12.6 µM [inhibitor, partial curve, poor fit].

**Q.** Which Potency does the source give for `COc1ccc2[nH]c3c(c2c1)CCN(C(=O)c1cccc(Cl)c1)C3c1ccc(F)cc1` (stereo not given) here?
**A.** The Potency was inconclusive: 1 µM [inhibitor, full curve, poor fit].

**Q.** Which Potency does the source give for `FC(F)Oc1ccc(/C=N/NC(=S)Nc2cc(C(F)(F)F)ccc2Cl)cc1` here?
**A.** Its Potency is inconclusive: 35.5 µM [inhibitor, single point].

**Q.** With `O=C(CC1NCCc2ccccc21)Nc1ccccc1` (stereo not given) as the compound, how does the “activity change, negative = inhibition” value read?
**A.** The value was inactive: 10.7%.

**Q.** With `Cc1cccc(NC(=S)/N=C(\N)Nc2nc(C)c3ccccc3n2)c1` as the compound, how does the Potency read?
**A.** Its Potency is inconclusive: 2.51 µM [inhibitor, single point].

**Q.** Which Potency does the source give for `O=C(NCc1nc(-c2ccc(C(F)(F)F)cc2)no1)Nc1ccc(OC(F)(F)F)cc1` here?
**A.** The Potency was inconclusive: 35.5 µM [inhibitor, single point].

**Q.** For `Cn1c(-c2ccc3c(c2)OCO3)c(C(=O)O)c(=O)c2ccccc21`, which “activity change, negative = inhibition” value is on record?
**A.** The value was inactive: 10.9%.

**Q.** With `CCOC(=O)c1ccc(C(=O)NNC(=O)C2CC=CCC2)cc1` (stereo not given) as the compound, how does the “activity change, negative = inhibition” value read?
**A.** The value was inactive: 0.568%.

**Q.** For `CC(C)c1nn2c(=O)cc(COC(=O)c3ccc(NC(=O)C4CCCCC4)cc3)nc2s1`, which Potency is on record?
**A.** The Potency was inconclusive: 3.98 µM [inhibitor, partial curve, poor fit].

**Q.** With `CC(=O)Nc1ccc(S(=O)(=O)Oc2ccc(C=O)cc2)cc1` as the compound, how does the “activity change, negative = inhibition” value read?
**A.** Its value is inactive: 3.14%.

**Q.** For `Cc1cccc(C(=O)Nc2sc3c(c2C#N)CCCCC3)c1`, which Potency is on record?
**A.** Its Potency is inconclusive: 11.2 µM [inhibitor, single point].
